doi:10.1101/757856
These are yes or no findings as the source states them, for the method shown. For part of these data: In cells and extracts the contact can be indirect. Some results given as binding are weak or reduced against the parent protein; the word gives no strength.

The chains behind the UniProt entries cited, without tags or fusion partners. Where a name states a change or a piece, a line headed by the entry shows the natural chain unless it says otherwise. A line that says so, or that is headed by a name, gives the form on record, which may keep a tag or linker. Residues count along the entry.
Neurofibromin DEF fragment (1541-2818, purified) (P21359, residues 1562-2839): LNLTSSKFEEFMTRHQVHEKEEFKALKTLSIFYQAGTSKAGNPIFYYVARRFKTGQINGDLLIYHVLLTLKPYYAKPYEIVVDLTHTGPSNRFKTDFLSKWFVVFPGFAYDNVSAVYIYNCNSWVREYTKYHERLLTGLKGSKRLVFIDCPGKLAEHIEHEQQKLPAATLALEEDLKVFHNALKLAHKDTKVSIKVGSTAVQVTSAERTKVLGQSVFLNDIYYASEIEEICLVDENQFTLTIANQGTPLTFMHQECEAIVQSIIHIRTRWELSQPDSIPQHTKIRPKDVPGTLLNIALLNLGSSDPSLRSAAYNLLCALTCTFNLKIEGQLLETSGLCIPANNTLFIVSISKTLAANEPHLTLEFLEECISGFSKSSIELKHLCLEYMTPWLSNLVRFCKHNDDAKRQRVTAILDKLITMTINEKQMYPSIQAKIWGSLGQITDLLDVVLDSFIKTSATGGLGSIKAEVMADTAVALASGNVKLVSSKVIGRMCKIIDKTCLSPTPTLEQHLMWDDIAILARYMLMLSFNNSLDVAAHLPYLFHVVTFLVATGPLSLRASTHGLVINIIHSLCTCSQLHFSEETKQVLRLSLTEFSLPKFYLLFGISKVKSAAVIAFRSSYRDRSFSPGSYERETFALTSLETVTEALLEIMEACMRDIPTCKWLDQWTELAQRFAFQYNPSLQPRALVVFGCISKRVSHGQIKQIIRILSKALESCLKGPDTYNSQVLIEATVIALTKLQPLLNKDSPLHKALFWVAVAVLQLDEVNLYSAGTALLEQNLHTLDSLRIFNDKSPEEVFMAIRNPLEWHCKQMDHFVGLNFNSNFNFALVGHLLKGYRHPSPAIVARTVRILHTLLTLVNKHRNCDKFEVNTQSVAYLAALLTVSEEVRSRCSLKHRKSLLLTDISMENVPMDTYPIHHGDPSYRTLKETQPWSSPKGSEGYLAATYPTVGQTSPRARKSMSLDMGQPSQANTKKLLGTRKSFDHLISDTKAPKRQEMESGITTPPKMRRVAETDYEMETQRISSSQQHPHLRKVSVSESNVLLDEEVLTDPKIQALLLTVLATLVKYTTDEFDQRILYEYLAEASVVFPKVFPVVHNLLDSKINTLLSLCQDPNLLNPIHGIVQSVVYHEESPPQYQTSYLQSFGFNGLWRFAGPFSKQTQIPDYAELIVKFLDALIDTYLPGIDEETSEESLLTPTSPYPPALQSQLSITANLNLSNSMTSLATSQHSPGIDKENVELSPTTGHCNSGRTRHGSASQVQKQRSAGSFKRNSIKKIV
full-length Neurofibromin, epitope-tagged (FLAG or V5), expressed in HEK293T cells (P21359-2, form named): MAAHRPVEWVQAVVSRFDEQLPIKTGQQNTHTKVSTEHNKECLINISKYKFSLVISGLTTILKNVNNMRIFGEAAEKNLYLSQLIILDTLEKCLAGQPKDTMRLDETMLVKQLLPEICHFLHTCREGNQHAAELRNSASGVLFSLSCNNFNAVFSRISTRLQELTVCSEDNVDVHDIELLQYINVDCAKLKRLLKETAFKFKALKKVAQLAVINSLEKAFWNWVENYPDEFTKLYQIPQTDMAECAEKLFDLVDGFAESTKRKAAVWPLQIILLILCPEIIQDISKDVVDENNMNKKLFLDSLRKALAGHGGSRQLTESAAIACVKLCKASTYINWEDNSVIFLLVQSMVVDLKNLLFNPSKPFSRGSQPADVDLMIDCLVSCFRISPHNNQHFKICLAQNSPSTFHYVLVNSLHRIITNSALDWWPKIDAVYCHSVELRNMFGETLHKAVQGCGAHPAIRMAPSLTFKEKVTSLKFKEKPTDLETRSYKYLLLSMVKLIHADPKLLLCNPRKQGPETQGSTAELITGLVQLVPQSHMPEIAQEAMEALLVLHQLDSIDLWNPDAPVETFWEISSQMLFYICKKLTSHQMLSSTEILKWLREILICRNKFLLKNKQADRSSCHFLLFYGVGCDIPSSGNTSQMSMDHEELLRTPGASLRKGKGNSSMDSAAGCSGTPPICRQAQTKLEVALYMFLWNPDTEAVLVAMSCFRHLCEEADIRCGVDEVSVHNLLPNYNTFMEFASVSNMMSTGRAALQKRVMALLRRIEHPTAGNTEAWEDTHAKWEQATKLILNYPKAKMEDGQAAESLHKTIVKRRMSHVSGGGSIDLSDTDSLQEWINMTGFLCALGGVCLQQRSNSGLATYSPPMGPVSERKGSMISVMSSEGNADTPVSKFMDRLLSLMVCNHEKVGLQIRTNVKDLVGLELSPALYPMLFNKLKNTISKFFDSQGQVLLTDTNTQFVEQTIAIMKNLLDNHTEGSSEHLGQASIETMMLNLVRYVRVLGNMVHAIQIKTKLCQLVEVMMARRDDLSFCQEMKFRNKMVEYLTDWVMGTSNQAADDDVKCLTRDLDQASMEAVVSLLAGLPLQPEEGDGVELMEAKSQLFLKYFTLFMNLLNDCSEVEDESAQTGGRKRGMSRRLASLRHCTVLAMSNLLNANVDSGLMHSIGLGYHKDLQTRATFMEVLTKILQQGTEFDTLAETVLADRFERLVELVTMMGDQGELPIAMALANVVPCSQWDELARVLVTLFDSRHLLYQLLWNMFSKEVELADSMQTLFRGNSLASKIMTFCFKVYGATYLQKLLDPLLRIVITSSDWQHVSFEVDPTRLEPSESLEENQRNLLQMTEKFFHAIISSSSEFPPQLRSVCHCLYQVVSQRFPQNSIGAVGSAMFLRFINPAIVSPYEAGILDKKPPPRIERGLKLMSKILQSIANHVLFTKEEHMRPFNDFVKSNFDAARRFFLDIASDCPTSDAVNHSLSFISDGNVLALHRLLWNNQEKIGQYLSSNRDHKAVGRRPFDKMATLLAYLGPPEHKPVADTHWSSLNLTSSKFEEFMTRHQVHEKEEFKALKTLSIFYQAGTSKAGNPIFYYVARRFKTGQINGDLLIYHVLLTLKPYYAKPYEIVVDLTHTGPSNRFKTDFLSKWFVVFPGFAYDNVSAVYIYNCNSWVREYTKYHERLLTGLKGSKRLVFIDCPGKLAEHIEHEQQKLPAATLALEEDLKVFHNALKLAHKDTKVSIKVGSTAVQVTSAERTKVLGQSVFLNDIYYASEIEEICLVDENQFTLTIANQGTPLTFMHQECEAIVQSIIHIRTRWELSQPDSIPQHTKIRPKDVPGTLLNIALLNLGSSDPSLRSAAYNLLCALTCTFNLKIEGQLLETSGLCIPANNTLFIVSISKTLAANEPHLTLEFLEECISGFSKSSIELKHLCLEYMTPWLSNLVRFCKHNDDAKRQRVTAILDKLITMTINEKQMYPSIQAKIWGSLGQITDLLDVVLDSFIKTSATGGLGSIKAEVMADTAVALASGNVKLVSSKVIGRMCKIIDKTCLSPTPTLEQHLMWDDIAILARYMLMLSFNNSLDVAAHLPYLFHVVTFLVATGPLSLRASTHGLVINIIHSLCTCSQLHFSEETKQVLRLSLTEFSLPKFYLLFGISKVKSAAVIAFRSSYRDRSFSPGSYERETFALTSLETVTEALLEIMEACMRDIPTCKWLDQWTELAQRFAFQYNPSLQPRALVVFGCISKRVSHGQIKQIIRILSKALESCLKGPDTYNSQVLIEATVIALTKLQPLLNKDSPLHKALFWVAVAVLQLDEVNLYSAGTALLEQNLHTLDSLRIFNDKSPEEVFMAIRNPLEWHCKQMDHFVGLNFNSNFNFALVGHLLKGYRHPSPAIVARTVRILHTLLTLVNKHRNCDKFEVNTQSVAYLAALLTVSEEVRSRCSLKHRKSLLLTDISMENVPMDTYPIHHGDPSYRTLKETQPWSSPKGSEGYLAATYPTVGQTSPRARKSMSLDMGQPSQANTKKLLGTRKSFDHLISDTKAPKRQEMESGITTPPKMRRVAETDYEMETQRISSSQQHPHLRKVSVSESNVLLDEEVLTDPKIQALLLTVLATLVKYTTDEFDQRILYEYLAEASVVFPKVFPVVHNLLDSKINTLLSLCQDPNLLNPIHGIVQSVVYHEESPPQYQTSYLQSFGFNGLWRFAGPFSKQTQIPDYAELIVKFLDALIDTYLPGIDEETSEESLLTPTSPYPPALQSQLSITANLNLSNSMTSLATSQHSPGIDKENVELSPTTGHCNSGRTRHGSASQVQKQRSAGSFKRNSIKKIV

Experiments:
[1] = biological target: Neurofibromin DEF fragment (1541-2818, purified) (human) (UniProt P21359); experiment: AUC
[2] = biological target: Neurofibromin DEF fragment (1541-2818, purified) (human) (UniProt P21359); experiment: SEC-MALS
[3] = biological target: full-length Neurofibromin, epitope-tagged (FLAG or V5), expressed in HEK293T cells (human) (UniProt P21359); experiment: co-IP

Row | binding [1] | binding [2] | binding [3] | Substance
1 | binds weakly | binds weakly |  | Neurofibromin DEF fragment (1541-2818, purified) (from UniProt P21359-2 1541-2818) (domain or fragment)
2 |  |  | binds | full-length Neurofibromin, epitope-tagged (FLAG or V5), expressed in HEK293T cells (from UniProt P21359-2 1-2818)
